This data set in a line: general procedure: solution-phase peptide synthesis; DCC/HOBt (coupling); HATU/diisopropyl ethyl amine (cyclisation). The conditions noted are these: for step yield: late stage modification step.

Consider “S-4-((3S,9S,14aR)-9-benzyl-6,6-dimethyl-1,4,7,10-tetraoxotetradeca-hydropyrrolo[1,2-a][1,4,7,10]tetraazacyclododecin-3-yl)butyl ethanethioate”, for which the step yield turned out to be 91%.

“(3S,9S,14aR)-9-benzyl-3-(but-3-enyl)-6,6-dimethyl decahydropyrrolo[1,2-a][1,4,7,10]tetraazacyclododecine-1,4,7,10-tetraone” came in with a step yield of 74%. The same substance showed a cyclisation yield (cyclisation step) of 74%.

“ethyl 8-((3S,9S,14aR)-9-benzyl-6,6-dimethyl-1,4,7,10-tetraoxotetra-decahydropyrrolo[1,2-a][1,4,7,10]tetraazacyclododecin-3-yl)-3-oxooctanoate” showed a step yield of 52%.

On to “(3S,9S,14aR)-9-benzyl-6,6-dimethyl-3-(6-oxooctyl)decahydro-pyrrolo[1,2-a][1,4,7,10]tetraazacyclododecine-1,4,7,10-tetraone”, for which the step yield came to 50%.

The substance “S-7-((3S,9S,14aR)-9-benzyl-6,6-dimethyl-1,4,7,10-tetraoxotetradecahydropyrrolo[1,2-a][1,4,7,10]tetraazacyclododecin-3-yl)-2-oxoheptyl O-ethyl carbonodithioate” had a step yield of 60%.

“(3S,9S,14aR)-9-benzyl-3-(7-bromo-6-oxoheptyl)-6,6-dimethyldecahydropvrrolo[1,2-a][1,4,7,10]tetraazacyclododecine-1,4,7,10-tetraone” came in with a step yield of 75%.

As to “(3S,9S,14aR)-9-benzyl-6,6-dimethyl-3-(7,7,7-trifluoro-6-oxoheptyl)-decahydropyrrolo[1,2-a][1,4,7,10]tetraazacyclododecine-1,4,7,10-tetraone”, the step yield stood at 49%.

Source of the values: US9133237B2 (priority 2009, dated 2015).
